According to article PMC3958483, “Fine Specificity and Molecular Competition in SLAM Family Receptor Signalling” (PLoS ONE, 2014):
Results are given in words; binding and its absence hold for the method and conditions named. In cells and extracts the contact can be indirect. These calls come from enrichment with a bait or labelling near it, and not all partners need be listed. For some assays here: No binding means not detected with the bait. For some assays here: Where a sequence is shown, tags or fusion partners need not be part of it. One block for each binder: values may come before it.

Assays:
Assay in all cases: affinity purification with mass spectrometry; streptavidin Sepharose coated with saturating biotinylated phosphopeptide or EAT-2; lysate of NK92 cells treated with 500 μM pervanadate (PBS, 1% Triton X-100, 1 mM orthovanadate); 2 hours at 4°C; eluted with glycine-HCl pH 2.5; LC-MS/MS; compared with a control bait (SHIP-1 Y865 phosphopeptide or EAT-2); only the target purified
[1] = biological target: T1, Biotinylated EAT-2 (full length human EAT-2 with a C-terminal BirA tag) (human) (UniProt O14796)
T1 sequence (chain, biotin (on the BirA tag)): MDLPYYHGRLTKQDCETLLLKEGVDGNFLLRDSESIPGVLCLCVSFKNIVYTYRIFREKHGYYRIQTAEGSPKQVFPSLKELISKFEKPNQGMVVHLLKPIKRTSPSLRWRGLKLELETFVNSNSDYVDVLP

[2] = biological target: T2, EAT-2 Y127 phosphopeptide (Biotin-NSNSDpYVDVLP) (human)
T2 sequence (peptide, phosphotyrosine at Y127 (position 6 of the peptide); biotin on the N-terminus): NSNSDYVDVLP

[3] = biological target: T3, CD244 ITSM1 phosphopeptide (Biotin-EFLTIpYEDVKD) (human)
T3 sequence (peptide, phosphotyrosine (pY, position 6 of the peptide); biotin on the N-terminus): EFLTIYEDVKD

binding [3]: binds
B3: SHIP-2 (endogenous, NK92 cells) (enzyme, UniProt O15357 1-1258)
chain: MASACGAPGPGGALGSQAPSWYHRDLSRAAAEELLARAGRDGSFLVRDSESVAGAFALCVLYQKHVHTYRILPDGEDFLAVQTSQGVPVRRFQTLGELIGLYAQPNQGLVCALLLPVEGEREPDPPDDRDASDGEDEKPPLPPRSGSTSISAPTGPSSPLPAPETPTAPAAESAPNGLSTVSHDYLKGSYGLDLEAVRGGASHLPHLTRTLATSCRRLHSEVDKVLSGLEILSKVFDQQSSPMVTRLLQQQNLPQTGEQELESLVLKLSVLKDFLSGIQKKALKALQDMSSTAPPAPQPSTRKAKTIPVQAFEVKLDVTLGDLTKIGKSQKFTLSVDVEGGRLVLLRRQRDSQEDWTTFTHDRIRQLIKSQRVQNKLGVVFEKEKDRTQRKDFIFVSARKREAFCQLLQLMKNKHSKQDEPDMISVFIGTWNMGSVPPPKNVTSWFTSKGLGKTLDEVTVTIPHDIYVFGTQENSVGDREWLDLLRGGLKELTDLDYRPIAMQSLWNIKVAVLVKPEHENRISHVSTSSVKTGIANTLGNKGAVGVSFMFNGTSFGFVNCHLTSGNEKTARRNQNYLDILRLLSLGDRQLNAFDISLRFTHLFWFGDLNYRLDMDIQEILNYISRKEFEPLLRVDQLNLEREKHKVFLRFSEEEISFPPTYRYERGSRDTYAWHKQKPTGVRTNVPSWCDRILWKSYPETHIICNSYGCTDDIVTSDHSPVFGTFEVGVTSQFISKKGLSKTSDQAYIEFESIEAIVKTASRTKFFIEFYSTCLEEYKKSFENDAQSSDNINFLKVQWSSRQLPTLKPILADIEYLQDQHLLLTVKSMDGYESYGECVVALKSMIGSTAQQFLTFLSHRGEETGNIRGSMKVRVPTERLGTRERLYEWISIDKDEAGAKSKAPSVSRGSQEPRSGSRKPAFTEASCPLSRLFEEPEKPPPTGRPPAPPRAAPREEPLTPRLKPEGAPEPEGVAAPPPKNSFNNPAYYVLEGVPHQLLPPEPPSPARAPVPSATKNKVAITVPAPQLGHHRHPRVGEGSSSDEESGGTLPPPDFPPPPLPDSAIFLPPSLDPLPGPVVRGRGGAEARGPPPPKAHPRPPLPPGPSPASTFLGEVASGDDRSCSVLQMAKTLSEVDYAPAGPARSALLPGPLELQPPRGLPSDYGRPLSFPPPRIRESIQEDLAEEAPCLQGGRASGLGEAGMSAWLRAIGLERYEEGLVHNGWDDLEFLSDITEEDLEEAGVQDPAHKRLLLDTLQLSK

binding [3]: binds
B4: SHIP-1 (endogenous, NK92 cells) (enzyme, UniProt Q92835 1-1189)
chain: MVPCWNHGNITRSKAEELLSRTGKDGSFLVRASESISRAYALCVLYRNCVYTYRILPNEDDKFTVQASEGVSMRFFTKLDQLIEFYKKENMGLVTHLQYPVPLEEEDTGDDPEEDTVESVVSPPELPPRNIPLTASSCEAKEVPFSNENPRATETSRPSLSETLFQRLQSMDTSGLPEEHLKAIQDYLSTQLAQDSEFVKTGSSSLPHLKKLTTLLCKELYGEVIRTLPSLESLQRLFDQQLSPGLRPRPQVPGEANPINMVSKLSQLTSLLSSIEDKVKALLHEGPESPHRPSLIPPVTFEVKAESLGIPQKMQLKVDVESGKLIIKKSKDGSEDKFYSHKKILQLIKSQKFLNKLVILVETEKEKILRKEYVFADSKKREGFCQLLQQMKNKHSEQPEPDMITIFIGTWNMGNAPPPKKITSWFLSKGQGKTRDDSADYIPHDIYVIGTQEDPLSEKEWLEILKHSLQEITSVTFKTVAIHTLWNIRIVVLAKPEHENRISHICTDNVKTGIANTLGNKGAVGVSFMFNGTSLGFVNSHLTSGSEKKLRRNQNYMNILRFLALGDKKLSPFNITHRFTHLFWFGDLNYRVDLPTWEAETIIQKIKQQQYADLLSHDQLLTERREQKVFLHFEEEEITFAPTYRFERLTRDKYAYTKQKATGMKYNLPSWCDRVLWKSYPLVHVVCQSYGSTSDIMTSDHSPVFATFEAGVTSQFVSKNGPGTVDSQGQIEFLRCYATLKTKSQTKFYLEFHSSCLESFVKSQEGENEEGSEGELVVKFGETLPKLKPIISDPEYLLDQHILISIKSSDSDESYGEGCIALRLEATETQLPIYTPLTHHGELTGHFQGEIKLQTSQGKTREKLYDFVKTERDESSGPKTLKSLTSHDPMKQWEVTSRAPPCSGSSITEIINPNYMGVGPFGPPMPLHVKQTLSPDQQPTAWSYDQPPKDSPLGPCRGESPPTPPGQPPISPKKFLPSTANRGLPPRTQESRPSDLGKNAGDTLPQEDLPLTKPEMFENPLYGSLSSFPKPAPRKDQESPKMPRKEPPPCPEPGILSPSIVLTKAQEADRGEGPGKQVPAPRLRSFTCSSSAEGRAAGGDKSQGKPKTPVSSQAPVPAKRPIKPSRSEINQQTPPTPTPRPPLPVKSPAVLHLQHSKGRDYRDNTELPHHGKHRPEEGPPGPLGRTAMQ

Continued, binder first:

B1: Phospholipase C gamma-2 (PLCγ2) (endogenous, NK92 cells) (enzyme, UniProt P16885 1-1265)
chain: MSTTVNVDSLAEYEKSQIKRALELGTVMTVFSFRKSTPERRTVQVIMETRQVAWSKTADKIEGFLDIMEIKEIRPGKNSKDFERAKAVRQKEDCCFTILYGTQFVLSTLSLAADSKEDAVNWLSGLKILHQEAMNASTPTIIESWLRKQIYSVDQTRRNSISLRELKTILPLINFKVSSAKFLKDKFVEIGAHKDELSFEQFHLFYKKLMFEQQKSILDEFKKDSSVFILGNTDRPDASAVYLHDFQRFLIHEQQEHWAQDLNKVRERMTKFIDDTMRETAEPFLFVDEFLTYLFSRENSIWDEKYDAVDMQDMNNPLSHYWISSSHNTYLTGDQLRSESSPEAYIRCLRMGCRCIELDCWDGPDGKPVIYHGWTRTTKIKFDDVVQAIKDHAFVTSSFPVILSIEEHCSVEQQRHMAKAFKEVFGDLLLTKPTEASADQLPSPSQLREKIIIKHKKLGPRGDVDVNMEDKKDEHKQQGELYMWDSIDQKWTRHYCAIADAKLSFSDDIEQTMEEEVPQDIPPTELHFGEKWFHKKVEKRTSAEKLLQEYCMETGGKDGTFLVRESETFPNDYTLSFWRSGRVQHCRIRSTMEGGTLKYYLTDNLTFSSIYALIQHYRETHLRCAEFELRLTDPVPNPNPHESKPWYYDSLSRGEAEDMLMRIPRDGAFLIRKREGSDSYAITFRARGKVKHCRINRDGRHFVLGTSAYFESLVELVSYYEKHSLYRKMRLRYPVTPELLERYNMERDINSLYDVSRMYVDPSEINPSMPQRTVKALYDYKAKRSDELSFCRGALIHNVSKEPGGWWKGDYGTRIQQYFPSNYVEDISTADFEELEKQIIEDNPLGSLCRGILDLNTYNVVKAPQGKNQKSFVFILEPKQQGDPPVEFATDRVEELFEWFQSIREITWKIDTKENNMKYWEKNQSIAIELSDLVVYCKPTSKTKDNLENPDFREIRSFVETKADSIIRQKPVDLLKYNQKGLTRVYPKGQRVDSSNYDPFRLWLCGSQMVALNFQTADKYMQMNHALFSLNGRTGYVLQPESMRTEKYDPMPPESQRKILMTLTVKVLGARHLPKLGRSIACPFVEVEICGAEYDNNKFKTTVVNDNGLSPIWAPTQEKVTFEIYDPNLAFLRFVVYEEDMFSDPNFLAHATYPIKAVKSGFRSVPLKNGYSEDIELASLLVFCEMRPVLESEEELYSSCRQLRRRQEELNNQLFLYDTHQNLRNANRDALVKEFSVNENQLQLYQEKCNKRLREKRVSNSKFYS
binding [1]: no binding | binding [2]: binds

B2: Phospholipase C gamma-1 (PLCγ1) (endogenous, NK92 cells) (enzyme, UniProt P19174 1-1290)
chain: MAGAASPCANGCGPGAPSDAEVLHLCRSLEVGTVMTLFYSKKSQRPERKTFQVKLETRQITWSRGADKIEGAIDIREIKEIRPGKTSRDFDRYQEDPAFRPDQSHCFVILYGMEFRLKTLSLQATSEDEVNMWIKGLTWLMEDTLQAPTPLQIERWLRKQFYSVDRNREDRISAKDLKNMLSQVNYRVPNMRFLRERLTDLEQRSGDITYGQFAQLYRSLMYSAQKTMDLPFLEASTLRAGERPELCRVSLPEFQQFLLDYQGELWAVDRLQVQEFMLSFLRDPLREIEEPYFFLDEFVTFLFSKENSVWNSQLDAVCPDTMNNPLSHYWISSSHNTYLTGDQFSSESSLEAYARCLRMGCRCIELDCWDGPDGMPVIYHGHTLTTKIKFSDVLHTIKEHAFVASEYPVILSIEDHCSIAQQRNMAQYFKKVLGDTLLTKPVEISADGLPSPNQLKRKILIKHKKLAEGSAYEEVPTSMMYSENDISNSIKNGILYLEDPVNHEWYPHYFVLTSSKIYYSEETSSDQGNEDEEEPKEVSSSTELHSNEKWFHGKLGAGRDGRHIAERLLTEYCIETGAPDGSFLVRESETFVGDYTLSFWRNGKVQHCRIHSRQDAGTPKFFLTDNLVFDSLYDLITHYQQVPLRCNEFEMRLSEPVPQTNAHESKEWYHASLTRAQAEHMLMRVPRDGAFLVRKRNEPNSYAISFRAEGKIKHCRVQQEGQTVMLGNSEFDSLVDLISYYEKHPLYRKMKLRYPINEEALEKIGTAEPDYGALYEGRNPGFYVEANPMPTFKCAVKALFDYKAQREDELTFIKSAIIQNVEKQEGGWWRGDYGGKKQLWFPSNYVEEMVNPVALEPEREHLDENSPLGDLLRGVLDVPACQIAIRPEGKNNRLFVFSISMASVAHWSLDVAADSQEELQDWVKKIREVAQTADARLTEGKIMERRKKIALELSELVVYCRPVPFDEEKIGTERACYRDMSSFPETKAEKYVNKAKGKKFLQYNRLQLSRIYPKGQRLDSSNYDPLPMWICGSQLVALNFQTPDKPMQMNQALFMTGRHCGYVLQPSTMRDEAFDPFDKSSLRGLEPCAISIEVLGARHLPKNGRGIVCPFVEIEVAGAEYDSTKQKTEFVVDNGLNPVWPAKPFHFQISNPEFAFLRFVVYEEDMFSDQNFLAQATFPVKGLKTGYRAVPLKNNYSEDLELASLLIKIDIFPAKENGDLSPFSGTSLRERGSDASGQLFHGRAREGSFESRYQQPFEDFRISQEHLADHFDSRERRAPRRTRVNGDNRL
binding [1]: no binding | binding [3]: binds | binding [2]: binds

B5: EAT-2 (endogenous, NK92 cells) (protein, UniProt O14796 1-132)
chain: T1 sequence (chain, biotin (on the BirA tag))
binding [3]: binds
